System: MDCKII-wt monolayer
Experiment: Membrane permeation across MDCKII-wt monolayers (Transwell)
Conditions: DZP at near saturation solubility (85.7 μM, S=0.7), assay buffer pH 7.4, 32° C., n=4
Description: In vitro permeation studies were also performed on prodrug/enzyme mixtures prepared at various prodrug and enzyme concentrations. […] The experiments were carried out as follows. Maden Darby Canine Kidney-II wild type (MDCK-IIwt) cells were plated on thin membranes in a six well Transwell apparatus. Following confluence and washing, assay buffer (PBS, pH 7.4) was introduced into the basal side of the membrane. At time zero, solutions of various concentrations of prodrug were combined with 0.25 U/ml of A.O protease and introduced on the […] side of the membrane. Aliquots were then taken, with replacement, from both the basal and apical sides, and assayed for both drug and prodrug. The integrity of the membranes throughout the experiment was confirmed by transepithelial resistance (TEER) and inulin permeation measurements.
Following previously published procedures (Kapoor M, et al., AAPS J, 2014, 16, 3, 577-585; and Kapoor M, et al., Mol Pharm, 2013, 10, 9, 519-3524), Madin Darby canine kidney II wild type (MDCKII-wt: passages between 10 and 20) cells were cultured and grown as monolayers in 12-well Transwell plates ([…] pore size, polyester, Corning). Transepithelial electrical resistance (TEER) was measured to assure membrane integrity just prior to conversion/permeation experiments. […]

CN1C(=O)CN=C(c2ccccc2)c2cc(Cl)ccc21 [DZP, diazepam]
flux of DZP across MDCKII-wt monolayer: 0.00045±0.00007 μg/cm^2·sec
